Data source: PubChem BioAssay AID1224830 (NIAID, 2016)

Assay: 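Regulators of TLR4 signalling towards TNF-alpha in macrophage-like cells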 (primary screen)
Cells: human THP-1 monocytic leukaemia cells, TNF dual-luciferase reporter clone, PMA-differentiated to macrophage-like cells
Knock-down reagent: siRNA pool against human genes, 50 nM
Duration: LPS for 4 h, given about 3 days after siRNA transfection
Challenge: bacterial LPS (TLR4 ligand), 10 ng/ml
Measured: 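Ratio of firefly to renilla light, scaled to the plate median and expressed as a robust z-score per replicate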
Scale: TNF reporter robust z-score: higher = stronger TNF reporter response to LPS
Rule for the call: 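a well is active when its z-score exceeds 2.8 or falls below -1.5; control wells carry no call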
The whole screen tested about 18,000 reagents; below is a random part of them. About 2,900 of all reagents (16%) count as active. 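Calls are made per well; low scores hint the gene aids the LPS response, high scores that it dampens it.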 Repeated entries: four replicate wells of each siRNA pool. Reagent sequences are not shown.

TMEM62 gave TNF reporter robust z-score 0.22; inactive. TMEM62 gave TNF reporter robust z-score 1.65; inactive. For TMEM62, the values are TNF reporter robust z-score 2.37; inactive. TMEM62 scored TNF reporter robust z-score 0.68; inactive. After knock-down of IFT38 the results were TNF reporter robust z-score -0.25; inactive. Against IFT38 the deposit lists TNF reporter robust z-score -0.6; inactive.

IFT38 scored TNF reporter robust z-score -0.91; inactive. IFT38 scored TNF reporter robust z-score 0.06; inactive. SHISA6 scored TNF reporter robust z-score -1.11; inactive. Depletion of SHISA6 gave: TNF reporter robust z-score -0.32; inactive. For SHISA6 the deposit lists TNF reporter robust z-score -1.46; inactive. SHISA6 gave TNF reporter robust z-score -1.2; inactive.

Continued:
Depletion of GAS1 gave: TNF reporter robust z-score -1.18; inactive. With knock-down of GAS1, the record shows TNF reporter robust z-score -0.14; inactive. For GAS1 the deposit lists TNF reporter robust z-score -0.63; inactive. GAS1 showed TNF reporter robust z-score -0.45; inactive. MAGIX gave TNF reporter robust z-score -1.37; inactive. After knock-down of MAGIX, the screen gave TNF reporter robust z-score -0.63; inactive.

With knock-down of MAGIX the results were TNF reporter robust z-score -0.92; inactive. For MAGIX the deposit lists TNF reporter robust z-score -0.11; inactive. FAM47B scored TNF reporter robust z-score -1.53; active. Against FAM47B, the values are TNF reporter robust z-score 0.25; inactive. For FAM47B the deposit lists TNF reporter robust z-score -0.63; inactive. After knock-down of FAM47B the results were TNF reporter robust z-score -0.09; inactive.

CCDC158 showed TNF reporter robust z-score 0.29; inactive. With knock-down of CCDC158, the record shows TNF reporter robust z-score 0.13; inactive. Silencing of CCDC158 came out at: TNF reporter robust z-score -0.15; inactive. CCDC158 scored TNF reporter robust z-score -0.14; inactive. With knock-down of TICAM2 the results were TNF reporter robust z-score -0.83; inactive. Depletion of TICAM2 resulted in: TNF reporter robust z-score 0.64; inactive.

For TICAM2 the deposit lists TNF reporter robust z-score -0.29; inactive. Against TICAM2, the entry reads TNF reporter robust z-score 0.1; inactive.
